{"source": "patent US5225583A", "about": "“Alkyl-aryl 1,3-propanedione silicone derivative and an external preparation for skin with the derivative compounded therein” (Shiseido Co., Ltd., priority 1991, dated 1993)", "tested_on": "skin", "assay": "Test for water resisting property (rate of compound remaining on the skin)", "type": "in vivo, human (male panels)", "conditions": "3 g in 97 g Silicone KF 56, 2 minutes in water at 30°+2° C.; for Rate of compound remaining on the skin, Average: Average of 10 panels", "data": [{"smiles": "COc1cc(C(=O)CC(=O)C(C)(C)C)ccc1OCCC[Si](C)(C)O[Si](C)(C)C", "note": "[Compound 1]", "values": [{"measurement": "Rate of compound remaining on the skin, Average", "value": 97.1, "unit": "%"}, {"measurement": "Rate of compound remaining on the skin", "setting": "Panel A", "value": 97.4, "unit": "%"}, {"measurement": "Rate of compound remaining on the skin", "setting": "Panel B", "value": 95.7, "unit": "%"}, {"measurement": "Rate of compound remaining on the skin", "setting": "Panel C", "value": 97.8, "unit": "%"}, {"measurement": "Rate of compound remaining on the skin", "setting": "Panel D", "value": 97.3, "unit": "%"}, {"measurement": "Rate of compound remaining on the skin", "setting": "Panel E", "value": 96.5, "unit": "%"}, {"measurement": "Rate of compound remaining on the skin", "setting": "Panel F", "value": 98.9, "unit": "%"}, {"measurement": "Rate of compound remaining on the skin", "setting": "Panel G", "value": 95.9, "unit": "%"}, {"measurement": "Rate of compound remaining on the skin", "setting": "Panel H", "value": 96.8, "unit": "%"}, {"measurement": "Rate of compound remaining on the skin", "setting": "Panel I", "value": 97.5, "unit": "%"}, {"measurement": "Rate of compound remaining on the skin", "setting": "Panel J", "value": 96.7, "unit": "%"}]}, {"smiles": "CCCCC(CC)COC(=O)c1ccc(N(C)C)cc1", "note": "(centres unmarked) [Comparison, reference compound]", "values": [{"measurement": "Rate of compound remaining on the skin, Average", "value": 83.0, "unit": "%"}, {"measurement": "Rate of compound remaining on the skin", "setting": "Panel A", "value": 82.3, "unit": "%"}, {"measurement": "Rate of compound remaining on the skin", "setting": "Panel B", "value": 80.6, "unit": "%"}, {"measurement": "Rate of compound remaining on the skin", "setting": "Panel C", "value": 84.5, "unit": "%"}, {"measurement": "Rate of compound remaining on the skin", "setting": "Panel D", "value": 79.8, "unit": "%"}, {"measurement": "Rate of compound remaining on the skin", "setting": "Panel E", "value": 80.3, "unit": "%"}, {"measurement": "Rate of compound remaining on the skin", "setting": "Panel F", "value": 83.8, "unit": "%"}, {"measurement": "Rate of compound remaining on the skin", "setting": "Panel G", "value": 89.2, "unit": "%"}, {"measurement": "Rate of compound remaining on the skin", "setting": "Panel H", "value": 80.4, "unit": "%"}, {"measurement": "Rate of compound remaining on the skin", "setting": "Panel I", "value": 83.9, "unit": "%"}, {"measurement": "Rate of compound remaining on the skin", "setting": "Panel J", "value": 85.1, "unit": "%"}]}, {"smiles": "COc1cc(C(=O)CC(=O)C(C)(C)C)ccc1OCCC[Si](C)(O[Si](C)(C)C)O[Si](C)(C)C", "note": "[Compound 2]", "values": [{"measurement": "Rate of compound remaining on the skin, Average", "value": 99.4, "unit": "%"}, {"measurement": "Rate of compound remaining on the skin", "setting": "Panel A", "value": 98.9, "unit": "%"}, {"measurement": "Rate of compound remaining on the skin", "setting": "Panel B", "value": 101.3, "unit": "%"}, {"measurement": "Rate of compound remaining on the skin", "setting": "Panel C", "value": 98.6, "unit": "%"}, {"measurement": "Rate of compound remaining on the skin", "setting": "Panel D", "value": 99.3, "unit": "%"}, {"measurement": "Rate of compound remaining on the skin", "setting": "Panel E", "value": 99.3, "unit": "%"}, {"measurement": "Rate of compound remaining on the skin", "setting": "Panel F", "value": 98.9, "unit": "%"}, {"measurement": "Rate of compound remaining on the skin", "setting": "Panel G", "value": 99.3, "unit": "%"}, {"measurement": "Rate of compound remaining on the skin", "setting": "Panel H", "value": 99.9, "unit": "%"}, {"measurement": "Rate of compound remaining on the skin", "setting": "Panel I", "value": 98.9, "unit": "%"}, {"measurement": "Rate of compound remaining on the skin", "setting": "Panel J", "value": 99.4, "unit": "%"}]}, {"smiles": "CCCCC(CC)C(=O)CC(=O)c1cc(CCC[Si](C)(O[Si](C)(C)C)O[Si](C)(C)C)c(OC)c(OC)c1", "note": "(centres unmarked) [Compound 5]", "values": [{"measurement": "Rate of compound remaining on the skin, Average", "value": 100.0, "unit": "%"}, {"measurement": "Rate of compound remaining on the skin", "setting": "Panel A", "value": 98.6, "unit": "%"}, {"measurement": "Rate of compound remaining on the skin", "setting": "Panel B", "value": 101.3, "unit": "%"}, {"measurement": "Rate of compound remaining on the skin", "setting": "Panel C", "value": 98.8, "unit": "%"}, {"measurement": "Rate of compound remaining on the skin", "setting": "Panel D", "value": 99.9, "unit": "%"}, {"measurement": "Rate of compound remaining on the skin", "setting": "Panel E", "value": 99.8, "unit": "%"}, {"measurement": "Rate of compound remaining on the skin", "setting": "Panel F", "value": 99.9, "unit": "%"}, {"measurement": "Rate of compound remaining on the skin", "setting": "Panel G", "value": 102.5, "unit": "%"}, {"measurement": "Rate of compound remaining on the skin", "setting": "Panel H", "value": 101.3, "unit": "%"}, {"measurement": "Rate of compound remaining on the skin", "setting": "Panel I", "value": 97.8, "unit": "%"}, {"measurement": "Rate of compound remaining on the skin", "setting": "Panel J", "value": 99.8, "unit": "%"}]}]}
